Laboratory results reported in patent US7732412B2 (Zentaris GmbH, priority 1999, dated 2010).

Experiments:
[1] = solid-phase peptide synthesis; conditions: for final purity (method not given): HPLC
[2] = general procedure: Boc solid-phase peptide synthesis; MBHA resin; DIC/HOBt; conditions: whole synthesis, scale 3.3 g MBHA resin, trifluoroacetate (Examples 7-9)
[3] = Fmoc solid-phase peptide synthesis; aminomethyl-substituted resin, Type D-1675, Bachem; DIC/HOBt; conditions: whole synthesis, trifluoroacetate (Examples 7-9)
[4] = whole synthesis, scale 9.2 g MBHA resin, trifluoroacetate (Examples 7-9)
[5] = whole synthesis, scale 2.5 g MBHA resin, trifluoroacetate (Examples 7-9)
[6] = whole synthesis, scale 4.0 g MBHA resin, trifluoroacetate (Examples 7-9)
[7] = late stage modification step, trifluoroacetate

In the case of “3-(4-Fluorophenyl)propionyl-D-Nal(1)^1-Ser^4-N-Me-Tyr^5-D-Lys (Atz)^6-Leu^7-Arg^8-Pro^9-D-Ala^10-NH2”, the crude mass [1, 4] was 5.8 g and the isolated mass [1, 4] was 2.0 g.

Work on “Ac-D-Nal(2)^1-D-Cpa^2-D-Pal(3)^3-Ser^4-N-Me-Tyr^5-D-Hci^6-Nle^7-Arg^8-Pro^9-D-Ala^10-NH2” yielded a crude mass [2] of 3.4 g and an isolated mass [2] of 1.43 g.

Substance “Ac-D-Nal(2)^1-D-Cpa^2-D-Pal(3)^3-Ser^4-N-Me-Tyr^5-D-Hci^6-Nle^7-Lys(iPr)^8-Pro^9-D-Ala^10-NH2” has a crude mass [1, 5] of 2.78 g and an isolated mass [1, 5] of 0.4 g.

With “Ac-D-Nal(2)^1-D-Cpa^2-D-Pal(3)^3-Ser^4-N-Me-Tyr^5-D-Lys(B)^6-Leu^7-Lys(iPr)^8-Pro^9-D-Ala^10-NH2” the crude mass [1, 6] was 4.87 g and the isolated mass [1, 6] was 0.93 g.

For “Ac-D-Nal(2)^1-D-Cpa^2-D-Pal(3)^3-Ser^4-N-Me-Tyr^5-D-Lys(B)^6-Nle^7-Arg^8-Pro^9-D-Ala^10-NH2”, the “crude HPLC purity” value [3] was “about 71%” and the “final purity (method not given)” value [1, 7] was 98.8%.

For “Ac-D-Nal(2)^1-D-Cpa^2-D-Pal(3)^3-Ser^4-N-Me-Tyr^5-D-Lys(B)^6-Nle^7-Arg^8-Pro^9-Sar^10-NH2”, the “final purity (method not given)” value ([3]; HPLC) was 98.5% and the “final purity (method not given)” value [1, 7] was “about 99%”.

With “Ac-D-Nal(2)^1-D-Cpa^2-D-Pal(3)^3-Ser^4-N-Me-Tyr^5-D-Lys(B)^6-Nle^7-Lys(iPr)^8-Pro^9-Sar^10-NH2” the “crude HPLC purity” value [3] was “about 59%”, the “final purity (method not given)” value [1, 7] was 96.6% and the “final purity (method not given)” value ([1]; whole synthesis, trifluoroacetate (Examples 7-9)) was 95%.

“Ac-D-Nal(2)^1-D-Cpa^2-D-Pal(3)^3Ser^4-N-Me-Tyr^5-D-Hci^6-Nle^7Lys(iPr)^8-Pro^9-Sar^10-NH2” showed a crude mass [1, 5] of 2.74 g and an isolated mass [1, 5] of 0.84 g.
